From PubChem BioAssay AID504444 (National Center for Advancing Translational Sciences (NCATS), 2011)
Among all 360,000 compounds or so, about 7,500 (2.1%) were called active. Inconclusive results, whose numbers are uncertain, are shown with a selection of clear calls. Calls follow the shape of the dose curve; as a rule, active = well fitted inhibition curve with a large enough effect; inconclusive = small, poorly fitted or top-dose-only effect, or effect the other way; inactive = flat fitted curve, though single readings scatter. A potency beside an inconclusive call is a rough fit, not a confirmed value.

Experiment: Nrf2 qHTS screen for inhibitors; also: nearly all actives have a fitted effect of over 60% in size
Details: A549 ARE-Fluc reporter, luciferase luminescence, 18-24 h; series mostly up to 46 µM
Outline: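 Reporter: ARE-Fluc in A549. Exposure: 18-24 h, 37 °C, 5% CO2, 5% FBS OPTI-MEM. Readouts: fluorescent cytotoxicity (CellTiter-Fluor), then luminescent Nrf2 signal after BugLite.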
Potency is read from the fitted curve at half-maximal effect.

Structure (SMILES) | Potency
CS/C(=N/S(=O)(=O)c1ccc(C)cc1)c1ccccc1 | inconclusive: 10.3 µM [falling, partial curve]
O=C(N/N=C\c1c(O)ccc2ccccc12)c1ccc(O)cc1 | inactive
COc1ccccc1N1CCN(/N=C/c2ccc(O)cc2O)CC1 | inconclusive: 16.4 µM [activator, partial curve]
COc1ccc(-c2cc(C(=O)N3CCCCCC3)no2)cc1 | inactive
COc1ccc(OC)c(CC(=O)Nc2cc(S(=O)(=O)N3CCCCC3)ccc2C)c1 | active: 20.6 µM
COc1ccc(C(=O)c2cnc(C(C)C)n2C)cc1 | inconclusive: 32.6 µM [falling, single point]
COc1ccc(-n2c(Cc3ccccc3)nnc2SCc2ccc([N+](=O)[O-])cc2)cc1 | inconclusive: 1.3 µM [falling, partial curve, poor fit]
COc1ccc2cc(C(=O)N3CCN(C)CC3)[nH]c2c1 | inconclusive: 5.17 µM [activator, partial curve]
COc1ccc(N(CC(=O)N/N=C/c2ccc(F)cc2)S(=O)(=O)c2ccccc2)cc1 | inactive
Cc1cccc(Cn2nnc3c(=O)[nH]c(C4CCCN(C(=O)c5ccc(C(C)(C)C)cc5)C4)nc32)c1 (stereo not given) | inconclusive: 29.1 µM [falling, single point]
CS(=O)(=O)Nc1ccc(-c2cn3c(n2)SCC3)cc1 | inconclusive: 18.4 µM [activator, single point]
Cc1nc2cc(NS(=O)(=O)c3ccc(Br)cc3)ccc2n1C | inconclusive: 29.1 µM [falling, single point]
CC(=O)c1cc2c(=O)c3cc(C)ccc3oc2nc1C | inconclusive: 8.2 µM [activator, partial curve]
Cc1cccc(Cn2nnc3c2C(=O)c2ccccc2C3=O)c1 | active: 20.6 µM
COc1ccc2c(CNC3CCC(C)CC3)c(C(=O)O)n(Cc3ccccc3)c2c1 (stereo not given) | inactive
Clc1ccc(OCCn2c(-c3ccco3)nc3ccccc32)cc1 | inconclusive: 32.6 µM [falling, single point]
CCNC(=S)Nc1cc(C)ccn1 | inconclusive: 7.31 µM [activator, partial curve]
c1ccc(Cc2cc(-c3ccccc3)on2)cc1 | inconclusive: 20.6 µM [activator, partial curve]
C=CC[n+]1c(-c2ccc(OC)cc2)csc1NNC(=O)Nc1ccccc1 | active: 14.6 µM
Cc1cc(NS(=O)(=O)c2ccc(NC(=O)/C=C/c3c(F)cccc3Cl)cc2)no1 | inconclusive: 32.6 µM [falling, partial curve, poor fit]
O=C(NCc1ccc2c(c1)OCO2)c1cccnc1 | inconclusive: 18.4 µM [falling, single point]

Four compounds already listed, arranged by SMILES length, rising:
Structure (SMILES) | Potency
CS/C(=N/S(=O)(=O)c1ccc(C)cc1)c1ccccc1 | inconclusive: 10.3 µM [falling, partial curve]
O=C(N/N=C\c1c(O)ccc2ccccc12)c1ccc(O)cc1 | inactive
C=CC[n+]1c(-c2ccc(OC)cc2)csc1NNC(=O)Nc1ccccc1 | active: 14.6 µM
COc1ccc2c(CNC3CCC(C)CC3)c(C(=O)O)n(Cc3ccccc3)c2c1 (stereo not given) | inactive

Going on with the list:

Structure (SMILES) | Potency
S=c1[nH]nc(Cc2ccccc2)n1-c1cccc2ccccc12 | inconclusive: 29.1 µM [falling, single point]
CCOC(=O)N1CCN(C(=O)c2oc3ccc(S(=O)(=O)N(CC)CC)cc3c2C)CC1 | inconclusive: 9.2 µM [falling, partial curve, poor fit]
O=C(COCc1cc(-c2ccc3c(c2)OCO3)on1)N1CCN(c2cccc(C(F)(F)F)c2)CC1 | inconclusive: 16.4 µM [falling, partial curve, poor fit]
COc1ccc(N(CC(=O)Nc2cc(C)ccc2OC)S(=O)(=O)c2c(C)noc2C)cc1 | active: 8.2 µM
O=C(CNC(=O)C1CCCCC1)OCC(=O)c1ccc(-c2ccccc2)cc1 | inactive
CC(OC(=O)c1cccc(-n2cnnn2)c1)C(=O)c1ccccc1 (stereo not given) | inactive
Cc1cc(C)c2c(n1)sc1c(=O)n(CC(=O)c3ccccc3)cnc12 | inconclusive: 23.1 µM [activator, partial curve, poor fit]
CCn1cc(C(=O)NCc2ccco2)c2cc(OC)c(OC)cc2c1=O | inconclusive: 25.9 µM [falling, single point]
CN1CCN(/N=C/c2ccc(OCc3ccccc3)cc2)CC1 | inconclusive: 4.61 µM [activator, partial curve]
O=C(Nc1nc2ccc(Cl)cc2s1)C1CCCO1 (stereo not given) | inconclusive: 4.61 µM [activator, full curve]
Cc1cccc(Cn2c(SCc3ccc(C(=O)NCc4ccccc4F)cc3)nc3cccnc32)c1 | inconclusive: 25.9 µM [falling, partial curve, poor fit]
CCOC(=O)c1nc(C)nc(Sc2n[nH]c(-c3cc(C(F)(F)F)cc(C(F)(F)F)c3)n2)c1C | inactive
Cn1c2ccccc2c2c(C(=O)N3CCN(c4cccc(C(F)(F)F)c4)CC3)cn(C3CCCCC3)c(=O)c21 | inconclusive: 7.31 µM [falling, partial curve, poor fit]
CCN(CC1CCCO1)C(=O)c1cc(COc2ccccc2SC)on1 (stereo not given) | inconclusive: 18.4 µM [activator, single point]
O=C(N/N=C/c1ccc([N+](=O)[O-])cc1)c1c[nH]c2ccccc12 | inconclusive: 8.2 µM [activator, partial curve]
Cc1ccc(-c2cn3nc(N4CCC(C(=O)Nc5ccccc5C)CC4)sc3n2)cc1 | inconclusive: 29.1 µM [activator, single point]
Cc1cc(N2CCN(c3ncccn3)CC2)nc2c(C)cccc12 | inconclusive: 18.4 µM [falling, single point]
COc1ccccc1Cc1nnc(NC(=O)C2CCN(C(=O)c3ccco3)CC2)s1 | inconclusive: 25.9 µM [falling, single point]
CCC(C(=O)Nc1cc(OC)ccc1OC)n1nc(-c2ccccc2)c2c(c1=O)CCCC2 (stereo not given) | inconclusive: 23.1 µM [falling, single point]
CCOC(=O)c1cc(NC(=O)c2ccco2)ccc1N1CCOCC1 | inconclusive: 2.91 µM [activator, partial curve, poor fit]
CC(C)c1nc(SCC(=O)Nc2nc3c(s2)CCCC3)c2ccccc2n1 | inconclusive: 20.6 µM [activator, partial curve]
CCN(c1ccccc1)S(=O)(=O)c1cccc(C(=O)NCC(c2ccc(F)cc2)N2CCOCC2)c1 (stereo not given) | inconclusive: 23.1 µM [falling, single point]

Structure (SMILES) | Potency
CCOc1cc(C(=O)N/N=C/C(Br)=C/c2ccccc2)cc(OCC)c1OCC | inconclusive: 2.91 µM [activator, full curve]
O=C(Nc1ccc(S(=O)(=O)Nc2ncccn2)cc1)C1COc2ccccc2O1 (stereo not given) | inconclusive: 14.6 µM [falling, partial curve, poor fit]
Cc1cccc(N2CCN(S(=O)(=O)c3ccc4c(c3)OCCO4)CC2)c1C | inconclusive: 29.1 µM [falling, single point]
COc1ccc(Br)cc1CC1C(=O)Nc2ccccc21 (stereo not given) | active: 7.31 µM
CCOC(=O)c1cccc(NC(=O)/C=C/c2ccc([N+](=O)[O-])cc2)c1 | inconclusive: 18.4 µM [falling, partial curve, poor fit]
COc1ccccc1NC(=O)Cc1c(F)cccc1Cl | inactive
O=C(COc1ccccc1F)Nc1ccc2nc(SCc3ccccc3)sc2c1 | inactive
CCOC(=O)NC1(Nc2cccc(Cl)c2)Oc2ccccc2O1 | inconclusive: 25.9 µM [activator, single point]
Fc1ccc(N2N=C(c3cccs3)CC2c2ccccc2)cc1 (stereo not given) | inactive
CCOc1ccc(OCCCC(=O)N2CCN(S(=O)(=O)c3ccccc3C#N)CC2)cc1 | inconclusive: 25.9 µM [falling, partial curve, poor fit]
CCOc1ccc(CC(=O)N/N=C(\C)c2cccnc2)cc1OCC | inconclusive: 25.9 µM [falling, single point]
O=C(NCc1nnc(SCC(=O)N2CCCc3ccccc32)n1-c1ccccc1)c1cccc2ccccc12 | active: 2.59 µM
COC(=O)CCC(=O)N(CCN(Cc1ccccc1)C(=O)CCC(=O)OC)Cc1ccccc1 | inconclusive: 3.26 µM [falling, partial curve, poor fit]
COc1ccc(C(=O)N2CCCC(CCC(=O)NCc3ccccc3F)C2)c(OC)n1 (stereo not given) | inconclusive: 29.1 µM [activator, single point]
CNC(=S)N/N=C/c1cc(Br)c(OCc2ccncc2)c(OC)c1 | inconclusive: 29.1 µM [falling, single point]
Cc1cccc(-n2c(SCc3ccc([N+](=O)[O-])cc3)nnc2-c2c[nH]c3ccccc23)c1 | inconclusive: 29.1 µM [falling, single point]
CCOC(=O)C1CCN(C(=O)Cn2nc(CC)n3c(cc4occc43)c2=O)CC1 | inactive
N#Cc1c(N)n(CCc2ccc(F)cc2)c2nc3ccccc3nc12 | inconclusive: 4.61 µM [falling, partial curve]
Cc1cc(Cl)ccc1NS(=O)(=O)c1cc2[nH]c(=O)c(=O)[nH]c2cc1C | inconclusive: 29.1 µM [activator, single point]
CC(=O)Oc1ccc(C(=O)NCCc2ccccc2)cc1 | inconclusive: 1.64 µM [activator, partial curve, poor fit]
O=C(N/N=C/c1ccc(N2CCOCC2)s1)c1ccc(NS(=O)(=O)c2cccs2)cc1 | inconclusive: 18.4 µM [activator, partial curve, poor fit]

Looked up by compound from above (2):
Structure (SMILES) | Potency
CCOc1ccc(OCCCC(=O)N2CCN(S(=O)(=O)c3ccccc3C#N)CC2)cc1 | inconclusive: 25.9 µM [falling, partial curve, poor fit]
CCOc1ccc(CC(=O)N/N=C(\C)c2cccnc2)cc1OCC | inconclusive: 25.9 µM [falling, single point]
